Results on 108 sequences are retold here after PubChem BioAssay AID1347426 (Functional Genomics Laboratory (NCATS/FGL), 2020).

Screen size: about 31,000 sequences; about 1,400 (4.5%) were called active.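 How the source made its calls: active means median seed-adjusted z-score above 1 or below -1; inactive means the rest.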 The list shows a part of the results.

The nature of the test: Novel Modifiers of Survival Motor Neuron (SMN) Protein: Gene Identification via Genome-wide siRNA Screen.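 Further: luminescence tracks full-length SMN protein made from the SMN2 reporter.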 Particulars: HEK293T SMN2-luciferase reporter, siRNA knockdown, 72 h; actives lie on both sides. Summed up: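 Genome-wide siRNA screen (10418 genes, 3 siRNAs each, 1 pmol per well) by reverse transfection in HEK293T cells stably carrying an SMN2-luciferase reporter; luminescence after 72 hours, normalized to negative-control siRNA, log10-transformed, MAD-scored.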
Consider GACCUGACCUGAAGACGAATT against GALNT11, for which the median seed-adjusted z-score is inactive: -0.259.

GCCCUUCCCUCUCAUCACATT against GPR182: the median seed-adjusted z-score is inactive: -0.136.

GAGUUGCUAGUAAAGCGAATT against MCCC1: the median seed-adjusted z-score is inactive: 0.298.

For GGUGGAUCAAUGAUACAGATT against DPP10, the median seed-adjusted z-score is inactive: -0.0478.

With GCUAAGUACAAGGACAGUATT against STK31, the median seed-adjusted z-score is inactive: 0.699.

Take GAGACAAAUUUGGGCCUUATT against HSF4: the median seed-adjusted z-score was inactive: 0.926.

Take GGUGGAGUCGGAAAAUCUATT against NUBPL: the median seed-adjusted z-score is inactive: 0.105.

CGGAGUUCAUCAAACAGAUTT against HHAT: the median seed-adjusted z-score was inactive: 0.585.

As for CGGGUACAAGGAUUGGUUUTT against ROM1, the median seed-adjusted z-score is inactive: 0.41.

As to CCUCAGCUUUUACAGCAAATT against RAD23A, the median seed-adjusted z-score is active: -1.13.

In the case of CCGGAGAACCUGAAACUCATT against CAB39L, the median seed-adjusted z-score is inactive: 0.

Regarding CACAUUCGUCCAAAACUUATT against NEUROD6, the median seed-adjusted z-score was inactive: -0.261.

Take CACCCUAACACUUAACAUATT against PTPN20B: the median seed-adjusted z-score is inactive: -0.62.

GAGAAGAUGUGGACAUACATT against GRIA1: the median seed-adjusted z-score was inactive: 0.927.

On to CCCUCGAUGGUGUCAAGUATT against NFIL3, for which the median seed-adjusted z-score was inactive: 0.4.

On to GGCAACCGGUGACCAAAAATT against GRK5, for which the median seed-adjusted z-score is inactive: -0.377.

In the case of GCUCAUCUGGAUAACCUGATT against ZNF513, the median seed-adjusted z-score was inactive: -0.0616.

GGCUUUCAACAGUAGAUCATT against ZNF311: the median seed-adjusted z-score is inactive: 0.196.

CCAACUAUCAGUGACCGUATT against CYP17A1: the median seed-adjusted z-score is active: -1.39.

As to CCCAGGAACUGCUAACGAATT against SETMAR, the median seed-adjusted z-score is inactive: 0.191.

Consider CAGUCACGCUGUCUAAUGATT against PPM2C, for which the median seed-adjusted z-score is inactive: 0.518.

As to GUCGAAUUCUUACGGAUAATT against FAM47B, the median seed-adjusted z-score was inactive: -0.0631.

For GAUCUAAAGUGAAAGUAUUTT against GKAP1, the median seed-adjusted z-score is inactive: -0.119.

Regarding GCGAUGCUCUUGACUCCUUTT against ENPP6, the median seed-adjusted z-score is inactive: -0.548.

On to GGGACCAUCUGGAUUCAUATT against GPR107, for which the median seed-adjusted z-score was inactive: 0.

For the sequence CGAAUAUGAUCCAACAAUATT against KRAS, the median seed-adjusted z-score is inactive: -0.0469.

On to CUAUGUCUAUCAGAAUGAATT against AKR1B10, for which the median seed-adjusted z-score is inactive: 0.

For CGAUAUUAAGUUGAACGAATT against KLHL7, the median seed-adjusted z-score was inactive: -0.567.

Take GCGCAACAGAUAAUCCUAUTT against HAL: the median seed-adjusted z-score was inactive: 0.

In the case of AAUUCCUAGUUGAAACUUUTT against QDPR, the median seed-adjusted z-score was inactive: -0.734.

In the case of GCAGAACAACGAGCACAGATT against CTSW, the median seed-adjusted z-score was inactive: -0.342.

As for AGAAAUCUUUGAUCCCACATT against E2F4, the median seed-adjusted z-score is inactive: -0.395.

For CCUCUGUGGUCAGACCAUUTT against ATP5O, the median seed-adjusted z-score is inactive: -0.324.

With GAACUGAAGGCGCUCCCUATT against HES3, the median seed-adjusted z-score was inactive: 0.284.

As to GAAUUAUGUUUAGCACCUUTT against SLC25A43, the median seed-adjusted z-score is inactive: 0.

Consider CAAAGAGCCUUGAGGUAUUTT against RPA4, for which the median seed-adjusted z-score is inactive: 0.132.

For the sequence GGAAGAAUUUCAGUCAGAATT against ZNF436, the median seed-adjusted z-score was inactive: 0.00767.

Turning to GCACUGCGACUGUACUCUATT against LRRC3B, the median seed-adjusted z-score was inactive: 0.

Consider ACACUGAGCUUAUGUUUUATT against FOXD4L4, for which the median seed-adjusted z-score was inactive: -0.0372.

Turning to CCAUCAUCAGCGACAUGAATT against MTSS1, the median seed-adjusted z-score was inactive: 0.175.

Turning to AUCUGGACGUGGUCCGCAATT against RBM42, the median seed-adjusted z-score is inactive: 0.

For CGAGAAUCCACCCAUCCUATT against NPY, the median seed-adjusted z-score is inactive: -0.0606.

With GGAUCGGAAUCUAUUAAGATT against UBR1, the median seed-adjusted z-score is inactive: -0.775.

For the sequence CCAUGGAGCAUUCUGCAAATT against OXCT1, the median seed-adjusted z-score is inactive: 0.133.

As to CACAGUGUAUAUUCCCUAUTT against SENP1, the median seed-adjusted z-score is inactive: 0.625.

Turning to GGAUAUGCCCUUGACUAUATT against HPRT1, the median seed-adjusted z-score was inactive: -0.0463.

With GGAUCUUCACAUCCGAGAATT against KIF27, the median seed-adjusted z-score was inactive: 0.412.

For CCUGAUUGAUUUAGAAUCATT against EPS8, the median seed-adjusted z-score was inactive: 0.

Consider GCAUCUAAAGAGCUACAGATT against ZNF584, for which the median seed-adjusted z-score is inactive: 0.172.

For CCCUCAUCAUUGCCGUUGATT against SLC1A7, the median seed-adjusted z-score was inactive: -0.781.

For the sequence GGUCAGCAGCUCUAAGCAATT against PHF19, the median seed-adjusted z-score was inactive: -0.195.

For the sequence UGAAAGGACUGGAGUCCAATT against OLFM1, the median seed-adjusted z-score was inactive: -0.103.

Consider GAAUCGCAUUUAUUAGUCATT against APPL1, for which the median seed-adjusted z-score was inactive: 0.

In the case of CGCAAACUCUGAAUCAACATT against MFN1, the median seed-adjusted z-score is inactive: 0.21.

In the case of CAAUGUUCAAAGUACUCAATT against DCK, the median seed-adjusted z-score was inactive: 0.123.

Take AACUGUACAUUGAAGCAGATT against CSTF3: the median seed-adjusted z-score was inactive: 0.0879.

For the sequence GGAGUGAAGUGCAAGCAUUTT against KSR1, the median seed-adjusted z-score was inactive: 0.0873.

With CGGAGGGUAUUAUAGAUAUTT against APIP, the median seed-adjusted z-score is inactive: -0.0945.

On to GAAACUGUUUGGUAAACGATT against BTK, for which the median seed-adjusted z-score was inactive: -0.0648.

Regarding CAGUGACACUAGUCUGCAATT against SIGLEC1, the median seed-adjusted z-score is inactive: -0.153.

Regarding CCAAUACCUGGGAUCCAUUTT against RUNX1, the median seed-adjusted z-score is inactive: -0.0264.

Turning to AAAAGACCGUCAACCCUUATT against A2BP1, the median seed-adjusted z-score was active: 1.17.

For the sequence GACUCGACCAAAAUCACUATT against TLX1, the median seed-adjusted z-score is inactive: -0.815.

As for GAGCCGGUCUUCAUCGUGATT against MEX3D, the median seed-adjusted z-score was inactive: -0.337.

On to GCACGUCAAUGGGUUUAAUTT against GNAL, for which the median seed-adjusted z-score was inactive: -0.178.

Take CCGACGAUAUUACUAAUGATT against HSP90AA1: the median seed-adjusted z-score is inactive: -0.323.

As to UCUGCAACCUUGAUGAACATT against MAP1S, the median seed-adjusted z-score is inactive: 0.0941.

For the sequence GGACAUCUGAGGAUACUGUTT against SHROOM2, the median seed-adjusted z-score was inactive: 0.11.

For the sequence GGACUUCGUGCUAUCAAAATT against CCT6B, the median seed-adjusted z-score was inactive: 0.

Turning to CAAGGAAUCUUUAAGCAGATT against NKX2-1, the median seed-adjusted z-score is inactive: 0.185.

Regarding CUGCUACAGUGAGACCGAATT against CNKSR1, the median seed-adjusted z-score is inactive: 0.217.

Take CGAUUACCCUGGUUGCACATT against KLF5: the median seed-adjusted z-score is inactive: -0.338.

As to GGAUACAAAUGACCGAUUUTT against MTHFD1L, the median seed-adjusted z-score was inactive: -0.0577.

For AGAAGGACAUUGCGGCUCATT against DYNLL1, the median seed-adjusted z-score is inactive: 0.

For the sequence CGUGUCAAAUAUUGGAUUATT against KLB, the median seed-adjusted z-score was inactive: 0.221.

On to CCCUCUUCGCUGUGAAUGATT against RHCG, for which the median seed-adjusted z-score is inactive: 0.375.

As to CCCUCACUUUUCUAGAAUATT against HKDC1, the median seed-adjusted z-score is inactive: -0.119.

Turning to CAACAAUCCUAUAAUUCCATT against UBE2Q2, the median seed-adjusted z-score is inactive: 0.146.

Regarding GACUCUGGGUUAUACUGGUTT against FCGR1A, the median seed-adjusted z-score is inactive: 0.869.

On to GAUCAUAAGUCUAAAUAAATT against PTH, for which the median seed-adjusted z-score was inactive: 0.

As to GCACAUAUGUGAGAAGAUUTT against RNF25, the median seed-adjusted z-score was inactive: -0.0826.

With GGCUUAGAGGGACGAAUAATT against SHROOM4, the median seed-adjusted z-score is inactive: 0.825.

With UGAGAUUUGUCGAACCAAATT against CDK9, the median seed-adjusted z-score is inactive: 0.901.

UGAGCUGGGUGAAACACGATT against KLHL17: the median seed-adjusted z-score is inactive: 0.139.

In the case of GGAAGAACAUACUUCGUUUTT against ST8SIA4, the median seed-adjusted z-score is inactive: -0.309.

In the case of GGACGGCAUUCAGUGUUUUTT against IVD, the median seed-adjusted z-score was inactive: -0.147.

CACUGUUUCCUCAAGCUUATT against ZNF121: the median seed-adjusted z-score is inactive: 0.0687.

Consider AAGUGUGCCUGAAUACUAUTT against KHDRBS2, for which the median seed-adjusted z-score is inactive: -0.335.

GGGUCUUCCUGGUUCUAUUTT against ECM2: the median seed-adjusted z-score is inactive: 0.179.

For the sequence GAUAUUGAGCGGUUACAAATT against ATP7B, the median seed-adjusted z-score is inactive: 0.0947.

Regarding CAAAGGGCUAAGUUCUAAATT against TBC1D5, the median seed-adjusted z-score is inactive: 0.38.

CAGACGUGAUGACAAGAUUTT against S100A7: the median seed-adjusted z-score was inactive: -0.253.

Regarding CUACAAGCAUCGAUAGUAATT against EIF4G3, the median seed-adjusted z-score is inactive: -0.0562.

For GAGUCAGAGUCAUUACUCATT against ZNF142, the median seed-adjusted z-score is inactive: 0.111.

On to ACAUUCAUCUCAACCUCGATT against RBM8A, for which the median seed-adjusted z-score is inactive: 0.

As to CAGGCACAUGAGUAACAAATT against ESR1, the median seed-adjusted z-score was inactive: -0.408.

Regarding GCAGCGAUAGUACUAAUGATT against KIT, the median seed-adjusted z-score is inactive: -0.686.

Regarding GAUGAUCUGUGAGACCAAATT against BOC, the median seed-adjusted z-score is inactive: -0.0192.

For AUGUACAAGUGUCAGCUAATT against VEGFC, the median seed-adjusted z-score was inactive: -0.41.

For GCUACUUGAACUACCCUAATT against ARIH1, the median seed-adjusted z-score is inactive: -0.443.

As for GCUUUGAUGAGACCCGCUATT against HGFAC, the median seed-adjusted z-score is inactive: 0.021.

For CGAUGGGUCUGUGCACAAATT against TGM2, the median seed-adjusted z-score is inactive: 0.413.

In the case of CCAUAGGUGUCAUCGCCUATT against CAMK1, the median seed-adjusted z-score is inactive: 0.325.

For the sequence GGCCUUACGGGUGUAGUAATT against ZNF419, the median seed-adjusted z-score was inactive: 0.0405.

GCUCGCAACAAAGAAUUAATT against CTNND1: the median seed-adjusted z-score was inactive: 0.38.

As to GAGUAGAGUUUGACGAGUATT against RBP2, the median seed-adjusted z-score was inactive: 0.0132.

Consider GGCAAAUAGUGUCAUCGAUTT against NPNT, for which the median seed-adjusted z-score was inactive: 0.164.

With CGUCGUUACUCAGAACUUATT against ZFP30, the median seed-adjusted z-score was inactive: 0.211.
